In US7838534B2, “Quinuclidine derivatives as M3 antagonists” (Chiesi Farmaceutici S.p.A., priority 2006, dated 2010):

Experiment: lung retention after intratracheal administration (lung homogenate, plasma)
Assay type: in vivo
Conditions: guinea pig lung; intratracheal 10 nmol/kg
Protocol: Lung retention was measured by means of two parameters: […] MRTL and […]/C0.5L (%) are two meaningful and predictive parameters of the duration of a drug's effect after single dose pulmonary administration. In addition to having high lung retention no plasma levels of the present compounds were detected. […] Therefore, potential undesirable secondary effects in other tissues could be avoided.

Compound: CC(C)[N+]1(C)[C@@H]2CC[C@H]1CC(OC(=O)C(CO)c1ccccc1)C2.[Br-] (stereo partly shown) [ipratropium bromide]
- MRTL (Mean Residence Time in the Lung): 3.9 h
